In patent US6605431:

Tested on: RNA polymerase holoenzyme (sigma70) (Escherichia coli)
Assay: SELEX
Conditions: purified native protein
[1] = in vivo more active than wild type

Sequence | selection result [1] | selection result | other results
GACCTCAGGAATTCCGCGGTCGACTGCAGTGGTAAAAAAAACACTTGTCAGGCCGGAATAACTCCCTATAATGCGCCACC (double strand) [selected proximal SEQ 30] | – | – | selection result (13 rounds): selected
GACCTCAGGAATTCCGCGGTCGACTGCAGTGGTAAAAAAAAGACTTGTCAGGCCGGAATAACTCCCTATAATGCGCCACC (double strand) [proximal subsite 4549] | – | – | selection result (most active proximal subsite, set stimulates 82-170 fold in vivo): selected
GACCTCAGGAATTCCGCGGTCGACTGCAGTGGTAAAAAAAATACTTGTCAGGCCGGAATAACTCCCTATAATGCGCCACC (double strand) [selected proximal SEQ 36] | – | – | selection result (13 rounds): selected
GACCTCAGGAATTCCGCGGTCGACTGCAGTGGTAAAAAAAATGCTTGTCAGGCCGGAATAACTCCCTATAATGCGCCACC (double strand) [selected proximal SEQ 31] | – | – | selection result (13 rounds): selected
GACCTCAGGAATTCCGCGGTCGACTGCAGTGGTAAAAAAAGTGCTTGTCAGGCCGGAATAACTCCCTATAATGCGCCACC (double strand) [selected proximal SEQ 33] | – | – | selection result (13 rounds): selected
GACCTCAGGAATTCCGCGGTCGACTGCAGTGGTAAAAATAGTACTTGTCAGGCCGGAATAACTCCCTATAATGCGCCACC (double strand) [selected proximal SEQ 34] | – | – | selection result (13 rounds): selected
GACCTCAGGAATTCCGCGGTCGACTGCAGTGGTACAAAAAACACTTGTCAGGCCGGAATAACTCCCTATAATGCGCCACC (double strand) [selected proximal SEQ 35] | – | – | selection result (13 rounds): selected
GACGTCAGGAATTCCGCGGTCAAAAATATTTTTTCGAAAAGTACTTGTCAGGCCGGAATAACTCCCTATAATGCGCCACC (double strand) [selected UP SEQ 46] | selected | – | –
GACGTCAGGAATTCCGCGGTCAAAAATATTTTTTTGAAAAGTACTTGTCAGGCCGGAATAACTCCCTATAATGCGCCACC (double strand) [selected UP SEQ 53] | selected | – | –
GACGTCAGGAATTCCGCGGTCAAAAATTTATTTTGCTAGGAATCTTGTCAGGCCGGAATAACTCCCTATAATGCGCCACC (double strand) [selected distal SEQ 13] | – | selected | –
GACGTCAGGAATTCCGCGGTCACAAAAATATTTTTCAAAACCCCTTGTCAGGCCGGAATAACTCCCTATAATGCGCCACC (double strand) [selected UP SEQ 48] | selected | – | –
GACGTCAGGAATTCCGCGGTCACAAAAATATTTTTCGAAACCCCTTGTCAGGCCGGAATAACTCCCTATAATGCGCCACC (double strand) [selected UP SEQ 55] | selected | – | –
GACGTCAGGAATTCCGCGGTCACGTATTTTTTTTACTAGGAATCTTGTCAGGCCGGAATAACTCCCTATAATGCGCCACC (double strand) [selected distal SEQ 9] | – | selected | –
GACGTCAGGAATTCCGCGGTCAGAAAAATATTTTCGAAAACTACTTGTCAGGCCGGAATAACTCCCTATAATGCGCCACC (double strand) [selected UP SEQ 45] | selected | – | –
GACGTCAGGAATTCCGCGGTCAGAAAAATATTTTGCTAGGAATCTTGTCAGGCCGGAATAACTCCCTATAATGCGCCACC (double strand) [selected distal SEQ 6] | – | – | selection result (set stimulates 4-16 fold in vivo): selected
GACGTCAGGAATTCCGCGGTCAGAAAAATATTTTTGAAAACTACTTGTCAGGCCGGAATAACTCCCTATAATGCGCCACC (double strand) [selected UP SEQ 58] | selected | – | –
GACGTCAGGAATTCCGCGGTCAGAAATTTATTTTAAAAAAGGGCTTGTCAGGCCGGAATAACTCCCTATAATGCGCCACC (double strand) [selected UP SEQ 60] | selected | – | –
GACGTCAGGAATTCCGCGGTCAGAAATTTTTTTTCGAAAAACACTTGTCAGGCCGGAATAACTCCCTATAATGCGCCACC (double strand) [selected UP SEQ 41] | selected | – | –
GACGTCAGGAATTCCGCGGTCAGATTTATTTTTCTCTAGGAATCTTGTCAGGCCGGAATAACTCCCTATAATGCGCCACC (double strand) [selected distal SEQ 19] | – | selected | –
GACGTCAGGAATTCCGCGGTCAGATTTTTTTTTTGTAAAAGTGCTTGTCAGGCCGGAATAACTCCCTATAATGCGCCACC (double strand) [selected UP SEQ 66] | selected | – | –
GACGTCAGGAATTCCGCGGTCATAAAATATTTTATCTAGGAATCTTGTCAGGCCGGAATAACTCCCTATAATGCGCCACC (double strand) [selected distal SEQ 22] | – | selected | –
GACGTCAGGAATTCCGCGGTCATATGTTTTTTTTACTAGGAATCTTGTCAGGCCGGAATAACTCCCTATAATGCGCCACC (double strand) [selected distal SEQ 18] | – | selected | –
GACGTCAGGAATTCCGCGGTCCAAAAATATTTTTGAAAAAAGACTTGTCAGGCCGGAATAACTCCCTATAATGCGCCACC (double strand) [selected UP SEQ 43] | selected | – | –
GACGTCAGGAATTCCGCGGTCCAAATTTTTTTTTGCTAAACCCCTTGTCAGGCCGGAATAACTCCCTATAATGCGCCACC (double strand) [selected UP SEQ 52] | selected | – | –

Sequence | selection result [1] | selection result | other results
GACGTCAGGAATTCCGCGGTCCCGGTTTTTTTTTACTAGGAATCTTGTCAGGCCGGAATAACTCCCTATAATGCGCCACC (double strand) [selected distal SEQ 15] | – | selected | –
GACGTCAGGAATTCCGCGGTCCGAAAAAAAATTTACTAGGAATCTTGTCAGGCCGGAATAACTCCCTATAATGCGCCACC (double strand) [selected distal SEQ 14] | – | selected | –
GACGTCAGGAATTCCGCGGTCGAAAAAAATAGTTGCTAGGAATCTTGTCAGGCCGGAATAACTCCCTATAATGCGCCACC (double strand) [selected distal SEQ 17] | – | selected | –
GACGTCAGGAATTCCGCGGTCGAAAAATATTTTTGATAAAGTACTTGTCAGGCCGGAATAACTCCCTATAATGCGCCACC (double strand) [selected UP SEQ 68] | selected | – | –
GACGTCAGGAATTCCGCGGTCGAAAAATATTTTTGCTAGGAATCTTGTCAGGCCGGAATAACTCCCTATAATGCGCCACC (double strand) [selected distal SEQ 10] | – | selected | –
GACGTCAGGAATTCCGCGGTCGAAAATATATTTTTCAAAAGTACTTGTCAGGCCGGAATAACTCCCTATAATGCGCCACC (double strand) [selected UP SEQ 70] | selected | – | –
GACGTCAGGAATTCCGCGGTCGATAAAAATAGTTGCTAGGAATCTTGTCAGGCCGGAATAACTCCCTATAATGCGCCACC (double strand) [selected distal SEQ 20] | – | selected | –
GACGTCAGGAATTCCGCGGTCGCAAAAATATTTCGTCAAACCCCTTGTCAGGCCGGAATAACTCCCTATAATGCGCCACC (double strand) [selected UP SEQ 67] | selected | – | –
GACGTCAGGAATTCCGCGGTCGCAAAATAATTGTAAAAAAGTACTTGTCAGGCCGGAATAACTCCCTATAATGCGCCACC (double strand) [selected UP SEQ 59] | selected | – | –
GACGTCAGGAATTCCGCGGTCGCAAAATTATTTTGCTAAAGTACTTGTCAGGCCGGAATAACTCCCTATAATGCGCCACC (double strand) [selected UP SEQ 69] | selected | – | –
GACGTCAGGAATTCCGCGGTCGCAAATATATTTTTCTAGGAATCTTGTCAGGCCGGAATAACTCCCTATAATGCGCCACC (double strand) [selected distal SEQ 23] | – | selected | –
GACGTCAGGAATTCCGCGGTCGCATTTTTTTTTCACTAGGAATCTTGTCAGGCCGGAATAACTCCCTATAATGCGCCACC (double strand) [selected distal SEQ 7] | – | selected | –
GACGTCAGGAATTCCGCGGTCGGAAATATTTTTTCATAAACCCCTTGTCAGGCCGGAATAACTCCCTATAATGCGCCACC (double strand) [selected UP SEQ 44] | selected | – | –
GACGTCAGGAATTCCGCGGTCGTAAAAATTTTTTACTAGGAATCTTGTCAGGCCGGAATAACTCCCTATAATGCGCCACC (double strand) [selected distal SEQ 8] | – | selected | –
GACGTCAGGAATTCCGCGGTCGTATGATTTTTTTACTAGGAATCTTGTCAGGCCGGAATAACTCCCTATAATGCGCCACC (double strand) [selected distal SEQ 21] | – | selected | –
GACGTCAGGAATTCCGCGGTCTAAAAAATATTTTACTAGGAATCTTGTCAGGCCGGAATAACTCCCTATAATGCGCCACC (double strand) [selected distal SEQ 11] | – | selected | –
GACGTCAGGAATTCCGCGGTCTAAAAATATTTTTCGTTTACCCCTTGTCAGGCCGGAATAACTCCCTATAATGCGCCACC (double strand) [selected UP SEQ 54] | selected | – | –
GACGTCAGGAATTCCGCGGTCTAAAAATTTTTTTTGAAAAGGGCTTGTCAGGCCGGAATAACTCCCTATAATGCGCCACC (double strand) [selected UP SEQ 42] | selected | – | –
GACGTCAGGAATTCCGCGGTCTAAACTATTTTTTCAAAAAGGACTTGTCAGGCCGGAATAACTCCCTATAATGCGCCACC (double strand) [selected UP SEQ 62] | selected | – | –
GACGTCAGGAATTCCGCGGTCTAAACTTTTTTTTTCGAAAGTGCTTGTCAGGCCGGAATAACTCCCTATAATGCGCCACC (double strand) [selected UP SEQ 64] | selected | – | –
GACGTCAGGAATTCCGCGGTCTAAATTTTTTTTTGCAAAAGTACTTGTCAGGCCGGAATAACTCCCTATAATGCGCCACC (double strand) [selected UP SEQ 47] | selected | – | –
GACGTCAGGAATTCCGCGGTCTAAATTTTTTTTTTCTAGGAATCTTGTCAGGCCGGAATAACTCCCTATAATGCGCCACC (double strand) [selected distal SEQ 16] | – | selected | –
GACGTCAGGAATTCCGCGGTCTAAGTTTTTTTTTACTAGGAATCTTGTCAGGCCGGAATAACTCCCTATAATGCGCCACC (double strand) [selected distal SEQ 12] | – | selected | –

Construct, isoform or probe ends are uncertain for at least one entry.
